Results deposited as PubChem BioAssay AID720505 (Drosophila RNAi Screening Center, 2013)
Assay: 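Knock-downs that reduce calcium influx once internal stores are emptied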 (primary screen). Cells: Drosophila S2R+ cells. Reagent: long dsRNA against Drosophila genes. Challenge: thapsigargin (2 µM) in calcium-free buffer to empty internal stores, then 2 mM calcium added back. Detection: 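Fluo-4 signal in 384-well plates read on a FLIPR after thapsigargin (2 µM, calcium-free) store depletion and 2 mM calcium add-back; unnormalised mean endpoint per well; screen run twice, selected wells retested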. Direction: calcium signal: higher = more calcium entry after store depletion. Rule for the call: 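About 1500 genes called as lowering calcium entry, by varying amounts, judged against per-plate control wells with STIM1 as positive and Rho1 as negative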. Calls: active = called as lowering calcium entry; inactive = not called.
In all, the deposit lists about 20,000 reagents; below is an unselected part of those that have a named target and a result. In the full data, about 2,100 (10%) got an active call. 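Raw plate signals without normalisation; calls rest on control-based scores that were not deposited; replicate 2 separates called from uncalled poorly.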 Reagents against one gene are numbered here. Not stated in the record: the amount of reagent, the time to read-out.

For MED11 (Mediator complex subunit 11) #1, the values are calcium signal, replicate 1 = 75.1; calcium signal, replicate 2 = 134; inactive. Silencing of MED11 (Mediator complex subunit 11) #2 came out at: calcium signal, replicate 1 = 87.5; calcium signal, replicate 2 = 109; inactive. For Gr22c (Gustatory receptor 22c), the values are calcium signal, replicate 1 = 107; calcium signal, replicate 2 = 244; inactive. After knock-down of CAH13 (Carbonic anhydrase 13), the screen gave calcium signal, replicate 1 = 147; calcium signal, replicate 2 = 165; inactive. Icmt (Isoprenylcysteine carboxyl methyltransferase) showed calcium signal, replicate 1 = 144; calcium signal, replicate 2 = 71.2; inactive. Against CG31076, the values are calcium signal, replicate 1 = 178; calcium signal, replicate 2 = 123; inactive.

With knock-down of Sid (Stress induced DNase), the record shows calcium signal, replicate 1 = 162; calcium signal, replicate 2 = 190; inactive. Silencing of CG33770 came out at: calcium signal, replicate 1 = 107; calcium signal, replicate 2 = 112; inactive. CG8298 showed calcium signal, replicate 1 = 112; calcium signal, replicate 2 = 244; inactive. Depletion of Cpr66Cb (Cuticular protein 66Cb) resulted in: calcium signal, replicate 1 = 85.5; calcium signal, replicate 2 = 51.9; inactive. Tmep (Transmembrane endosomal protein) showed calcium signal, replicate 1 = 108; calcium signal, replicate 2 = 103; inactive. After knock-down of 14-3-3zeta, the record shows calcium signal, replicate 1 = 160; calcium signal, replicate 2 = 175; inactive.
